Four molecules from paper PMC6796902 can be followed below.

By UniProt entry, the sequences of proteins in these tests, tags left out.
UniProt Q03164: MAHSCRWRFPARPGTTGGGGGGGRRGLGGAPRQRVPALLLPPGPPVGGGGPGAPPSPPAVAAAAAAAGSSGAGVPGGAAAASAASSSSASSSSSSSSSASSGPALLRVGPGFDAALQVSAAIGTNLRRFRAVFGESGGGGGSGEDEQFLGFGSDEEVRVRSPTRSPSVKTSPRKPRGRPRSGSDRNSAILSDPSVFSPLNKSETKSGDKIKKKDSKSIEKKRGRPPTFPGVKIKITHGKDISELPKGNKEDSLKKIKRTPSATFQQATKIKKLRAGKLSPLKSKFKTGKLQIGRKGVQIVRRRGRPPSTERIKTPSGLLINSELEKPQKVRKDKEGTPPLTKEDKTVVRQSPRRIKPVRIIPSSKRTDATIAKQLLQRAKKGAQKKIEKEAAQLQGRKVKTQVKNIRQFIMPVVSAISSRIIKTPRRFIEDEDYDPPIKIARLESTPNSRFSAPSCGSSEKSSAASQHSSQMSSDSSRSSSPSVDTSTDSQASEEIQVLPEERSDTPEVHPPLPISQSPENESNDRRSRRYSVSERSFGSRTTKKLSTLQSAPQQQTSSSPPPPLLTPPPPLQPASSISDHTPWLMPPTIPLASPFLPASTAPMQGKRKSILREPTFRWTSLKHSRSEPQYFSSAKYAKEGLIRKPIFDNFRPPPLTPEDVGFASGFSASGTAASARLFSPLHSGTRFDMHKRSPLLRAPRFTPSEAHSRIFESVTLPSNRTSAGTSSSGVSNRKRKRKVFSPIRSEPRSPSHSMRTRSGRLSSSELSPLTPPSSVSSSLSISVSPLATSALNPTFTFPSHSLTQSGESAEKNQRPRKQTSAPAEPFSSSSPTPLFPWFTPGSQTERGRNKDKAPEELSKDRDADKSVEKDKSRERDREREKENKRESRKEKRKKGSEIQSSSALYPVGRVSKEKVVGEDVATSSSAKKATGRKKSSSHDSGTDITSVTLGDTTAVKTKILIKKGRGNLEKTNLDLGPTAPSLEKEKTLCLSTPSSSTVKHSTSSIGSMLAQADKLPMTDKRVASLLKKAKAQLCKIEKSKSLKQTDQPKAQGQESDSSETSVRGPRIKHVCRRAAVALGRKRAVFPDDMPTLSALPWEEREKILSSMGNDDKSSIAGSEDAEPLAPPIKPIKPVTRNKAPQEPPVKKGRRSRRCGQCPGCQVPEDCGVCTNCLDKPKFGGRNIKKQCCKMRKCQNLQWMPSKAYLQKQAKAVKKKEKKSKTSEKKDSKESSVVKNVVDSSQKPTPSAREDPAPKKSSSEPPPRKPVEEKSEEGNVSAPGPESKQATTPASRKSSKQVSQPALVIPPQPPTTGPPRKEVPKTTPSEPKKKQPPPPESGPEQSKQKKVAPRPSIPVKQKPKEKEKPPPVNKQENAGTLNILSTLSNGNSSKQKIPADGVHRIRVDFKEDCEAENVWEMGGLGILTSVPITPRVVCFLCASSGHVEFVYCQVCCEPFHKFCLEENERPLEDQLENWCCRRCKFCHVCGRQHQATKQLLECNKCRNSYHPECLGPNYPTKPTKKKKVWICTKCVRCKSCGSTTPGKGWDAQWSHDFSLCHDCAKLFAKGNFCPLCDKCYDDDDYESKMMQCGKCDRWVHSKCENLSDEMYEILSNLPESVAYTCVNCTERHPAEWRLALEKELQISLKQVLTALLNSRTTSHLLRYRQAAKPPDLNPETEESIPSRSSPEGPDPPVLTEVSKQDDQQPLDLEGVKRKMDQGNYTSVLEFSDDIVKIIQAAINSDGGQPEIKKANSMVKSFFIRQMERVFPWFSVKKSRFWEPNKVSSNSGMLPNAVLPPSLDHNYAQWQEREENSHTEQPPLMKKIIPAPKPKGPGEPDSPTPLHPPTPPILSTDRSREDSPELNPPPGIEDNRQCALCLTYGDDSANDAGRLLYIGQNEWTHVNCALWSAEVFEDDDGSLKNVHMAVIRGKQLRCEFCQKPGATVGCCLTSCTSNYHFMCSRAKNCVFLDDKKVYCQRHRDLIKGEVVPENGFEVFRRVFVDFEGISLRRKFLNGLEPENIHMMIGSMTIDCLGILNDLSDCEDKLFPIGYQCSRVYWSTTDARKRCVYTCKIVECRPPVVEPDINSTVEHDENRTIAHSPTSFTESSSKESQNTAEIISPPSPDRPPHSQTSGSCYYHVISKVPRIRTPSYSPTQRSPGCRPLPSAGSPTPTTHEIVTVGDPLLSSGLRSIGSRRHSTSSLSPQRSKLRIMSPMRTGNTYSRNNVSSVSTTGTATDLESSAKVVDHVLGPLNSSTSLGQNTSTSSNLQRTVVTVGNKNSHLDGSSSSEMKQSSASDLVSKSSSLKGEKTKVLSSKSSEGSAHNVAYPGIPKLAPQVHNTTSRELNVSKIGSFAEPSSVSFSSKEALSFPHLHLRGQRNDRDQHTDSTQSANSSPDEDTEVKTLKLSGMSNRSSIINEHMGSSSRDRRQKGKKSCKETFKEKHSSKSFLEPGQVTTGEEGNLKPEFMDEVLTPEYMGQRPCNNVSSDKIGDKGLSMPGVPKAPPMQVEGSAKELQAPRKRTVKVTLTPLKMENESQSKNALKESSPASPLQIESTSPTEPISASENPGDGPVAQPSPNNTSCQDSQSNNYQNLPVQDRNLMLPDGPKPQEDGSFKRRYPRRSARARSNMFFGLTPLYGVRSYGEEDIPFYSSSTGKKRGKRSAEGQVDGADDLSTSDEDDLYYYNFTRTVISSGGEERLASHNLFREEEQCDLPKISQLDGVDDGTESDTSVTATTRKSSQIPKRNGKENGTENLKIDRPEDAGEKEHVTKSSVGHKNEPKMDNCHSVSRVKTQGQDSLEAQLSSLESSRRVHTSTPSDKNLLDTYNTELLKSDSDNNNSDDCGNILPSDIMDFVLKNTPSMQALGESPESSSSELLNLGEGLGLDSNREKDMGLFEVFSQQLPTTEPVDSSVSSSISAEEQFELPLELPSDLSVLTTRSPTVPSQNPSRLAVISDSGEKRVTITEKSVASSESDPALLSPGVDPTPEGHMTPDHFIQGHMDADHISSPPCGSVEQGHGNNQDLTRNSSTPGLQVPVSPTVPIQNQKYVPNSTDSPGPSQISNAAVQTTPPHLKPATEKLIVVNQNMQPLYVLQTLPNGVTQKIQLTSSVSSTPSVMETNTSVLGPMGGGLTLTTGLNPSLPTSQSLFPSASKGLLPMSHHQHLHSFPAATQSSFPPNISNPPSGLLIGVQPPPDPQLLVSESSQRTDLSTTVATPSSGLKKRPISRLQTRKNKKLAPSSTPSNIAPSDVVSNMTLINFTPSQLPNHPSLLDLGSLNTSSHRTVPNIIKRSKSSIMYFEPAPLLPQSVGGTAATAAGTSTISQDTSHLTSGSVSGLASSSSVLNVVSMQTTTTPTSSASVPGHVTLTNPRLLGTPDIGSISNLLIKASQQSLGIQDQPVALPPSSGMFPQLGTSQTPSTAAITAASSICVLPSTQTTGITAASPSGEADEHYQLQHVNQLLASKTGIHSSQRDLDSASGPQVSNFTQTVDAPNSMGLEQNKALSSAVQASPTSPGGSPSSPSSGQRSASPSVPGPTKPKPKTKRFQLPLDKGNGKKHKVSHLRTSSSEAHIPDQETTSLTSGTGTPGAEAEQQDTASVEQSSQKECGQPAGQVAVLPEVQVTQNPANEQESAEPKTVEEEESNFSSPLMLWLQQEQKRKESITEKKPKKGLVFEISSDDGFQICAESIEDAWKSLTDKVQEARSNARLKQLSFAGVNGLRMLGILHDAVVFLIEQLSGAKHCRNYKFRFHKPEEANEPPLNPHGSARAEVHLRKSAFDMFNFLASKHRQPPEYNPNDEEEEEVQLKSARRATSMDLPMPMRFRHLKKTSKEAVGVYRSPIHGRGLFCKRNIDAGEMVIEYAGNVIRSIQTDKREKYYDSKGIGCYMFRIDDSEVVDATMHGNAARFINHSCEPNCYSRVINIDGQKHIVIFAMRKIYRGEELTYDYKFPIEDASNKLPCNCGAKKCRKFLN
UniProt O00255: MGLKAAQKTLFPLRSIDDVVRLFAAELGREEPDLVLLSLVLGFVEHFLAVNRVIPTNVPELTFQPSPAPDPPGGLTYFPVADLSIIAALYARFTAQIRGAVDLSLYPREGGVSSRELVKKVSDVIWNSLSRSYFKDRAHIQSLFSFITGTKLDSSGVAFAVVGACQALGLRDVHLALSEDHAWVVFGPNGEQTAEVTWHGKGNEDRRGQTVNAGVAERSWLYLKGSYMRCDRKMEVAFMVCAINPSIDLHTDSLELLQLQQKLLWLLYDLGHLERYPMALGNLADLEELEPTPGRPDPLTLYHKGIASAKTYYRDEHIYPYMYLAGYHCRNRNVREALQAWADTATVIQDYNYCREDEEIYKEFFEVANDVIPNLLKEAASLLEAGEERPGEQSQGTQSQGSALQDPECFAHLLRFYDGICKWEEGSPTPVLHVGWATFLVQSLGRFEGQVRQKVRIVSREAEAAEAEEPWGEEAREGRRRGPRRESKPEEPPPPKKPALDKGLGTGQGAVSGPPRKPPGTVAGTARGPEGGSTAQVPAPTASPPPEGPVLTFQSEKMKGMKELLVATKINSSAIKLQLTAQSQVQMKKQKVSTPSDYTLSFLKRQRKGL
UniProt P11940: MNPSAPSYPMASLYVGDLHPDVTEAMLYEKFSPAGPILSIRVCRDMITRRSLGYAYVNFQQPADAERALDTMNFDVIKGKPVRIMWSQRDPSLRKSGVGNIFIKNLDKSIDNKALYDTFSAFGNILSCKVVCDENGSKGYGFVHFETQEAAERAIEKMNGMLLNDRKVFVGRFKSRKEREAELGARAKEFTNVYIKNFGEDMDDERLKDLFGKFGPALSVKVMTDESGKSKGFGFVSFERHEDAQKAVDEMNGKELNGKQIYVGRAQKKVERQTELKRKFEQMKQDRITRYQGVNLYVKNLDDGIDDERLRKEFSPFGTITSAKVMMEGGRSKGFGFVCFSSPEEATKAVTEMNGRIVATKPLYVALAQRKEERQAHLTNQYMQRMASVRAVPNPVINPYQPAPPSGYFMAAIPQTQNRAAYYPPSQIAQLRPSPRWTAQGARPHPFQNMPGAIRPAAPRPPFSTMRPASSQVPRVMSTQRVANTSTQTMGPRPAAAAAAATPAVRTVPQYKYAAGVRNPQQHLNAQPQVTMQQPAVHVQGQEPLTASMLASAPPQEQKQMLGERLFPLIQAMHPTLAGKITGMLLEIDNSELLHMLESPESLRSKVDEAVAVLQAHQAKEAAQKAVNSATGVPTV
UniProt P67809: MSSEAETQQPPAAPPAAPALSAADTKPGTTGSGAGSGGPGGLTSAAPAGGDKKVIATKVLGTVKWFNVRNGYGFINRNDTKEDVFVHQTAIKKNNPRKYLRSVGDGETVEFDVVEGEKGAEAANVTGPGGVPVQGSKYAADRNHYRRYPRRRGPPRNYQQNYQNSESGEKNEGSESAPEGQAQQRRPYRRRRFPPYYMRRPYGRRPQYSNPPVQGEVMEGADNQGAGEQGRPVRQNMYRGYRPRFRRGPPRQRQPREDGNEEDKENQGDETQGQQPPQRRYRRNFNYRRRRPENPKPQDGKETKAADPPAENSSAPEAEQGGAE

This assay concerns the target mixed-lineage leukemia (MLL) protein (human (endogenous in 293T)) (UniProt Q03164). The assay is described as follows: affinity purification with mass spectrometry; MLL affinity purification from total 293T cell extracts, followed by LC/MS analysis.

These are yes or no findings as the source states them, for the method shown. In cells and extracts the contact can be indirect. Here binding means that the protein was enriched with, or labelled near, the bait; the list need not be complete.

On to MENIN (from UniProt O00255 1-610), for which the binding entry is “binds”. As to PABPC1 (from UniProt P11940 1-636), the binding result is “binds”.

In the case of YB-1 (from UniProt P67809 1-324), the binding entry is recorded as “binds”.

B1: UPF1 (protein, UniProt Q92900 1-1129)
chain: MSVEAYGPSSQTLTFLDTEEAELLGADTQGSEFEFTDFTLPSQTQTPPGGPGGPGGGGAGGPGGAGAGAAAGQLDAQVGPEGILQNGAVDDSVAKTSQLLAELNFEEDEEDTYYTKDLPIHACSYCGIHDPACVVYCNTSKKWFCNGRGNTSGSHIVNHLVRAKCKEVTLHKDGPLGETVLECYNCGCRNVFLLGFIPAKADSVVVLLCRQPCASQSSLKDINWDSSQWQPLIQDRCFLSWLVKIPSEQEQLRARQITAQQINKLEELWKENPSATLEDLEKPGVDEEPQHVLLRYEDAYQYQNIFGPLVKLEADYDKKLKESQTQDNITVRWDLGLNKKRIAYFTLPKTDSGNEDLVIIWLRDMRLMQGDEICLRYKGDLAPLWKGIGHVIKVPDNYGDEIAIELRSSVGAPVEVTHNFQVDFVWKSTSFDRMQSALKTFAVDETSVSGYIYHKLLGHEVEDVIIKCQLPKRFTAQGLPDLNHSQVYAVKTVLQRPLSLIQGPPGTGKTVTSATIVYHLARQGNGPVLVCAPSNIAVDQLTEKIHQTGLKVVRLCAKSREAIDSPVSFLALHNQIRNMDSMPELQKLQQLKDETGELSSADEKRYRALKRTAERELLMNADVICCTCVGAGDPRLAKMQFRSILIDESTQATEPECMVPVVLGAKQLILVGDHCQLGPVVMCKKAAKAGLSQSLFERLVVLGIRPIRLQVQYRMHPALSAFPSNIFYEGSLQNGVTAADRVKKGFDFQWPQPDKPMFFYVTQGQEEIASSGTSYLNRTEAANVEKITTKLLKAGAKPDQIGIITPYEGQRSYLVQYMQFSGSLHTKLYQEVEIASVDAFQGREKDFIILSCVRANEHQGIGFLNDPRRLNVALTRARYGVIIVGNPKALSKQPLWNHLLNYYKEQKVLVEGPLNNLRESLMQFSKPRKLVNTINPGARFMTTAMYDAREAIIPGSVYDRSSQGRPSSMYFQTHDQIGMISAGPSHVAAMNIPIPFNLVMPPMPPPGYFGQANGPAAGRGTPKGKTGRGGRQKNRFGLPGPSQTNLPNSQASQDVASQPFSQGALTQGYISMSQPSQMSQPGLSQPELSQDSYLGDEFKSQIDVALSQDSTYQGERAYQHGGVTGLSQY
With B1, the binding result was “binds”.
